The supplement of paper PMC5770031
The other results are listed elsewhere or left out. Single values are uncertain here, since repeats match poorly.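 ATM8/balancer (normal ATM) heterozygous flies were crossed on treated food; parents laid eggs 5–6 days, offspring developed ~12 days, so parents and larvae ingested compound. Readout: fraction of emerged adults homozygous for ATM8 versus 2% DMSO controls. Compounds were neutral at 10–20% homozygotes, harmful below 10%, helpful above 20%.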 Peptide text beside a SMILES is read from it.

test system: Drosophila melanogaster ATM8 (temperature-sensitive ATM allele); assay: fraction of eclosed F1 progeny that are homozygous ATM8 (rescue of developmental lethality); higher = more rescue of ATM8 developmental lethality; extreme values may be limits of the assay; conditions: compound concentration applied to food 0.2 mM; 21 °C

Row | Compound | fraction of eclosed F1 progeny that are homozygous ATM8
1 | COc1cccc(C=O)c1OC | 0.268
2 | COc1ccc2cc3[n+](cc2c1OC)CCc1cc2c(cc1-3)OCO2 | 0.125
3 | O=C(CCCN1CCC2(CC1)C(=O)NCN2c1ccccc1)c1ccc(F)cc1 | 0.208
4 | CC(C)Cn1c(=O)n(C)c(=O)c2nc[nH]c21 | 0.0727
5 | COC(=O)C[C@H]1C(C)(C)C(=O)[C@@H]2CC3C4=CC(=O)O[C@@H](c5ccoc5)[C@]4(C)CC[C@@H]3[C@@]1(C)C2=O (stereo not given in full) | 0.238
6 | CC(C)=CC1C(C(=O)O)C1(C)C (stereo not given) | 0.25
7 | OCC(S)CS (stereo not given) | 0.0698
8 | CN(C)CC(=O)OC[C@@H](O)[C@@H](O)[C@H](O)[C@@H](O)C(=O)O | 0.127
9 | CC(C)(C)NCC(O)COc1cccc2c1CC(O)C(O)C2 (stereo not given) | 0.0545
10 | Cc1cc(O)cc(O)c1C(=O)O | 0
11 | O=[N+]([O-])O[C@H]1CO[C@H]2[C@@H]1OC[C@H]2O[N+](=O)[O-] | 0.0952
12 | CC1=C(C(=O)O)N2C(=O)[C@@H](NC(=O)[C@H](N)c3ccccc3)[C@H]2SC1 | 0.0488
13 | CC[C@H](C)C(=O)O[C@H]1C[C@H](O)C=C2C=C[C@H](C)[C@H](CC[C@@H](O)C[C@@H](O)CC(=O)O)[C@H]21 | 0
14 | NCC1(CC(=O)O)CCCCC1 | 0.0172
15 | COc1cc2ccc(=O)oc2c2ccoc12 | 0.0385
16 | O=c1cccc2n1C[C@@H]1CNC[C@H]2C1 | 0.0889
17 | NC(=O)CC[C@H](NC(=O)[C@@H](N)CO)C(=O)O (H-Ser-Gln-OH) | 0.0976
18 | OCC(O)C(O)C(O)CO (stereo not given) | 0.0811
19 | CC[C@@]1(O)C(=O)OCc2c1cc1n(c2=O)Cc2cc3c(CN(C)C)c(O)ccc3nc2-1 | 0.177
20 | Nc1nc(=O)[nH]cc1F | 0.323
21 | O=C(O)/C=C(\CC(=O)O)C(=O)O | 0.179
22 | Cc1c(C)c2c(c(C)c1O)CCC(C)(CCCC(C)CCCC(C)CCCC(C)C)O2 (stereo not drawn) [alpha-TOCHOPHEROL [4 mM]] | 0.0857

Four of these compounds, set out differently:
COc1ccc2cc3[n+](cc2c1OC)CCc1cc2c(cc1-3)OCO2
  fraction of eclosed F1 progeny that are homozygous ATM8: 0.125
OCC(S)CS (stereo not given)
  fraction of eclosed F1 progeny that are homozygous ATM8: 0.0698
NCC1(CC(=O)O)CCCCC1
  fraction of eclosed F1 progeny that are homozygous ATM8: 0.0172
COc1cc2ccc(=O)oc2c2ccoc12
  fraction of eclosed F1 progeny that are homozygous ATM8: 0.0385

Following part

Row | Compound | fraction of eclosed F1 progeny that are homozygous ATM8
23 | NC[C@H]1O[C@H](O[C@H]2[C@H](O)[C@@H](O[C@H]3O[C@H](CO)[C@@H](O)[C@H](N)[C@H]3O)[C@H](N)C[C@@H]2N)[C@H](N)[C@@H](O)[C@@H]1O | 0.227
24 | CCCC(=O)Nc1ccc(OCC(O)CNC(C)C)c(C(C)=O)c1 (stereo not given) | 0.182
25 | C[C@@H]1O[C@@H](OC[C@H]2O[C@@H](Oc3c(-c4ccc(O)c(O)c4)oc4cc(O)cc(O)c4c3=O)[C@H](O)[C@@H](O)[C@@H]2O)[C@H](O)[C@H](O)[C@H]1O | 0.0588
26 | CO/N=C(\C(=O)N[C@@H]1C(=O)N2C(C(=O)O)=C(CSC(=O)c3ccco3)CS[C@H]12)c1csc(N)n1 | 0.667
27 | O=C(Nc1ccccc1)OCC(CN1CCCCC1)OC(=O)Nc1ccccc1 (stereo not given) | 0.0667
28 | N=C(N)c1ccc(N=NNc2ccc(C(=N)N)cc2)cc1 | 0.0303
29 | COc1c(O)cc(O)cc1O | 0.106
30 | N[C@@H](CC(=O)N1CCn2c(nnc2C(F)(F)F)C1)Cc1cc(F)c(F)cc1F | 0.0357
31 | COc1cc2c(cc1OC)Cc1cc(OC)c(OC)cc1Cc1cc(OC)c(OC)cc1C2 | 0.351
32 | CCOC(=O)c1cncn1[C@H](C)c1ccccc1 | 0.08
33 | C[C@@H]1O[C@@H](O[C@H]2[C@H](Oc3cc(O)c4c(c3)O[C@H](c3ccc(O)cc3)CC4=O)O[C@H](CO)[C@@H](O)[C@@H]2O)[C@H](O)[C@H](O)[C@H]1O | 0.246
34 | C=COCC(F)(F)F | 0.257
35 | CC(=O)OCC(=O)[C@@]12OC3(CCCC3)O[C@@H]1C[C@H]1[C@@H]3CCC4=CC(=O)C=C[C@]4(C)[C@@]3(F)[C@@H](O)C[C@@]12C | 0.192
36 | O=C(O)Cc1cc(I)c(Oc2ccc(O)c(I)c2)c(I)c1 | 0.156
37 | CC(C)=CCC/C(C)=C\CO | 0.2
38 | COCCCOc1ccnc(C[S+]([O-])c2nc3ccccc3[nH]2)c1C (stereo not given) | 0.162
39 | COc1cc(C(C)=O)cc(OC)c1O | 0.2
40 | CNCC[C@@H](Oc1ccccc1C)c1ccccc1 | 0.353
41 | Cc1ccc(C(=O)C(C)CN2CCCCC2)cc1 (stereo not given) | 0.0508
42 | O=C(CCCCC(=O)Nc1c(I)cc(I)c(C(=O)O)c1I)Nc1c(I)cc(I)c(C(=O)O)c1I | 0.106
43 | O=C(O)/C=C/C=C/c1ccccc1 | 0.111
44 | CCCc1nc2c(C)cc(-c3nc4ccccc4n3C)cc2n1Cc1ccc(-c2ccccc2C(=O)O)cc1 | 0.26

Row | Compound | fraction of eclosed F1 progeny that are homozygous ATM8
45 | COCCCOc1cc(C[C@@H](C[C@H](N)[C@@H](O)C[C@H](C(=O)NCC(C)(C)C(N)=O)C(C)C)C(C)C)ccc1OC | 0.0411
46 | CCCCOC(=O)c1ccc(O)cc1 | 0.116
47 | C#C[C@]1(OC(C)=O)CC[C@H]2[C@@H]3CCC4=CC(=O)CC[C@@H]4[C@H]3CC[C@@]21C | 0.0784
48 | COc1ccc(-c2cc(=O)c3c(O)c(OC)c(OC)c(OC)c3o2)cc1OC | 0.208
49 | N=C(N)N1CCc2ccccc2C1 | 0.224
50 | CC1=CC(=O)c2ccccc2C1=O | 0.136
51 | CC(=O)/N=c1/sc(S(N)(=O)=O)nn1C | 0.0493
52 | O=C(O)c1nn(Cc2ccc(Cl)cc2Cl)c2ccccc12 | 0.286
53 | CC(=O)Oc1ccc(-c2coc3c4c(c(CC=C(C)C)c(OC(C)=O)c3c2=O)OC(C)(C)C=C4)cc1OC(C)=O | 0.244
54 | C[N+]12CC[C@@]34c5ccccc5N5C(=O)C[C@@H]6OCC=C(C1)[C@H](C[C@@H]32)[C@@H]6[C@H]54 (stereo not given in full) | 0.109
55 | CC(C[N+](C)(C)C)OC(N)=O (stereo not given) | 0.0952
56 | CN(C)CCN(Cc1ccc(Cl)cc1)c1ccccn1 | 0.241
57 | Cc1cn([C@H]2C[C@H](N=[N+]=[N-])[C@@H](CO)O2)c(=O)[nH]c1=O | 0.154
58 | COc1ccc([C@@H]2Sc3ccccc3N(CCN(C)C)C(=O)[C@@H]2OC(C)=O)cc1 | 0.185
59 | O=C(NC(=O)c1c(F)cccc1F)Nc1ccc(Cl)cc1 | 0.225
60 | Cc1c(NC(C)C)c(=O)n(-c2ccccc2)n1C | 0.0625
61 | COc1cc2c(c3ccccc13)OC(C)(C)C=C2 | 0.225
62 | COc1cc2c(cc1O)CCN[C@@H]2C | 0.393
63 | COc1ccc(-c2coc3cc(O)ccc3c2=O)c(O)c1O | 0.0435
64 | CCCCCC(=O)Cc1cc(O)cc(O)c1C(=O)Oc1cc(CC(=O)CCCCC)c(C(=O)O)c(OC)c1 | 0.0625
65 | COc1c(C)c2c(c(O)c1C/C=C(\C)CCC(=O)OCCN1CCOCC1)C(=O)OC2 | 0.118
